Data from PMC6199744, “Development of Chemical Proteomics for the Folateome and Analysis of the Kinetoplastid Folateome” (ACS Infectious Diseases, 2018).
Where two headings read alike, the source gives them in different places. The source gives many values for each of these; only a part stands here.

System: T. brucei lysate proteins
Format: binding, Trypanosoma brucei

## Nc1nc2cccc(-c3ccccc3)c2n1Cc1ccc(Cl)c(Cl)c1 [compound 3]
Protein TB09.211.2740 GIM5B PROTEIN, vehicle control = 1
  fold change: 0.9
Protein TB09.211.4760 METACASPASE 5, PUTATIVE, vehicle control = 1
  fold change: 1.4
Protein TB11.03.0530 HY[…], CONSERVED, vehicle control = 1
  fold change: 0.97
Protein TB427TMP.01.2460 HY[…], CONSERVED, vehicle control = 1
  fold change: 0.95
Protein TB427TMP.01.3110 HEAT SHOCK PROTEIN 70, vehicle control = 1
  fold change: 0.98
Protein TB427TMP.01.4750 […] 1 GAMMA, PUTATIVE, vehicle control = 1
  fold change: 0.65
Protein TB427TMP.01.6180 HY[…], CONSERVED, vehicle control = 1
  fold change: 0.94
Protein TB427TMP.01.7290 NUDIX HYDROLASE, CONSERVED, vehicle control = 1
  fold change: 0.99
Protein TB427TMP.01.8560 HY[…], CONSERVED, vehicle control = 1
  fold change: 0.98
Protein TB427TMP.02.2410 CLATHRIN COAT ASSEMBLY PROTEIN, PUTATIVE, vehicle control = 1
  fold change: 1
Protein TB427TMP.02.4300 HY[…], CONSERVED, vehicle control = 1
  fold change: 0.92
Protein TB427TMP.03.0030 ABC TRANSPORTER, PUTATIVE, vehicle control = 1
  fold change: 0.86
Protein TB427TMP.160.3780 HY[…], CONSERVED, vehicle control = 1
  fold change: 0.95
Protein TB427TMP.160.4620 INOSITOL-1(OR 4)-MONOPHOSPHATASE, PUTATIVE, vehicle control = 1
  fold change: 0.82
Protein TB427TMP.211.4550 60S RIBOSOMAL PROTEIN L12, PUTATIVE, vehicle control = 1
  fold change: 1.7
Protein TB427.02.5820 HY[…], CONSERVED, vehicle control = 1
  fold change: 1.29
Protein TB427.02.5900 HY[…], CONSERVED, vehicle control = 1
  fold change: 1.1
Protein TB427.04.2060 HY[…], CONSERVED, vehicle control = 1
  fold change: 0.86
Protein TB427.05.1700 R[…] A 28 KDA SUBUNIT, PUTATIVE, vehicle control = 1
  fold change: 0.91
Protein TB427.05.550 VACUOLAR ATP SYNTHASE, PUTATIVE, vehicle control = 1
  fold change: 0.99
Protein TB427.06.4740 IMPORTIN-ALPHA RE-EXPORTER PROTEIN, PUTATIVE, vehicle control = 1
  fold change: 0.95
Protein TB427.07.3160 DYNEIN HEAVY CHAIN, CYTOSOLIC, PUTATIVE, vehicle control = 1
  fold change: 1.39
Protein TB427.07.4170 FATTY ACID ELONGASE, PUTATIVE, vehicle control = 1
  fold change: 1.39
Protein TB427.08.1420 ACYL-COA DEHYDROGENASE, MIT[…], PUTATIVE, vehicle control = 1
  fold change: 0.77
Protein TB427.08.1950 HY[…], CONSERVED, vehicle control = 1
  fold change: 0.98
Protein TB427.10.10360 MICROTUBULE-[…], PUTATIVE, vehicle control = 1
  fold change: 1.57
Protein TB427.10.1060 T-COMPLEX PROTEIN 1, DELTA SUBUNIT, PUTATIVE, vehicle control = 1
  fold change: 1.2
Protein TB427.10.12820 HY[…], CONSERVED, vehicle control = 1
  fold change: 1.41
Protein TB427.10.1450 HY[…], CONSERVED, vehicle control = 1
  fold change: 1.38
Protein TB427.10.15360 HY[…], CONSERVED, vehicle control = 1
  fold change: 0.93
Protein TB427.10.3210 DELTA-1-PYRROLINE-5-CARBOXYLATE DEHYDROGENASE, PUTATIVE, vehicle control = 1
  fold change: 0.98
Protein TB427.10.5770 VALOSIN-[…] HOMOLOG, vehicle control = 1
  fold change: 1.53
Protein TB427.10.5850 HY[…], CONSERVED, vehicle control = 1
  fold change: 1.29
Protein TB927.10.12740 HY[…], CONSERVED,ZINC FINGER PROTEIN FAMILY MEMEBER, PUTATIVE, vehicle control = 1
  fold change: 0.93
Protein TB927.10.14170 AQUAPORIN 9, PUTATIVE, vehicle control = 1
  fold change: 2.84
Protein TB927.10.14820 MIT[…] PROTEIN, PUTATIVE, vehicle control = 1
  fold change: 0.9
Protein TB927.10.2640 INTR[…] PROTEIN IFT81, PUTATIVE, vehicle control = 1
  fold change: 0.98
Protein TB927.10.2890 ENOLASE, vehicle control = 1
  fold change: 0.87
Protein TB927.10.6050 CLATHRIN HEAVY CHAIN, vehicle control = 1
  fold change: 0.96
Protein TB927.10.9740 […] SUBUNIT 6, vehicle control = 1
  fold change: 1.44
Protein TB927.4.3630 PROTEIN PHOSPHATASE 1, PUTATIVE, vehicle control = 1
  fold change: 0.99
Protein TB927.6.2360 ADENOSINE KINASE, PUTATIVE, vehicle control = 1
  fold change: 0.97
Protein TB927.8.4810 PROHIBITIN 1, vehicle control = 1
  fold change: 0.98
Vs vehicle control, protein HA-UBIQUITIN (CZB00000046.1)
  fold change: 0.93
Vs vehicle control, protein TB09.160.2360 POLY(A) EXPORT PROTEIN, PUTATIVE
  fold change: 1
Vs vehicle control, protein TB09.211.4460 ADP-RI[…], PUTATIVE
  fold change: 0.97
Vs vehicle control, protein TB11.01.3180 GUANINE NUCLEOTIDE-BINDING PROTEIN BETA SUBUNIT-LIKE PROTEIN
  fold change: 0.89
Vs vehicle control, protein TB11.01.5860 T-COMPLEX PROTEIN 1, EPSILON SUBUNIT, PUTATIVE
  fold change: 0.95
Vs vehicle control, protein TB11.01.8740 PROTEIN PHOSPHATASE 4, PUTATIVE
  fold change: 0.99
Vs vehicle control, protein TB11.02.1220 […] SUBUNIT 2
  fold change: 1
Vs vehicle control, protein TB427TMP.01.1540 HY[…], CONSERVED
  fold change: 1
Vs vehicle control, protein TB427TMP.01.5000 HY[…], CONSERVED
  fold change: 0.97
Vs vehicle control, protein TB427TMP.01.8470 DIHYDROLIPOYL DEHYDROGENASE
  fold change: 1
Vs vehicle control, protein TB427TMP.02.1690 HY[…], CONSERVED
  fold change: 0.93
Vs vehicle control, protein TB427TMP.160.2220 HY[…], CONSERVED
  fold change: 1
Vs vehicle control, protein TB427TMP.160.3820 NUCLEOLAR RNA BINDING PROTEIN, PUTATIVE
  fold change: 0.99
Vs vehicle control, protein TB427TMP.211.2730 GIM5A PROTEIN
  fold change: 0.77
Vs vehicle control, protein TB427TMP.211.4170 HY[…], CONSERVED
  fold change: 0.91
Vs vehicle control, protein TB427.02.4130 ENOYL-COA HYDRATASE/ENOYL-COA ISOMERASE/3-HYDROXYACYL-COA DEHYDROGENASE, PUTATIVE
  fold change: 0.99
Vs vehicle control, protein TB427.02.5850 SMALL NUCLEAR RIBONUCLEOPROTEIN SMD2
  fold change: 0.93
Vs vehicle control, protein TB427.03.1790 PYRUVATE DEHYDROGENASE E1 BETA SUBUNIT, PUTATIVE
  fold change: 0.99
Vs vehicle control, protein TB427.04.4300 HY[…], CONSERVED
  fold change: 0.96
Vs vehicle control, protein TB427.05.2890 HY[…], CONSERVED
  fold change: 0.73
Vs vehicle control, protein TB427.05.4460 MAJOR VAULT PROTEIN, PUTATIVE
  fold change: 0.76
Vs vehicle control, protein TB427.06.1500 ALKYL-DIHYDR[…] SYNTHASE
  fold change: 0.98
Vs vehicle control, protein TB427.06.2250 RAC SERINE-THREONINE KINASE, PUTATIVE
  fold change: 0.96
Vs vehicle control, protein TB427.06.3630 SPHINGOSINE 1-PHOSPHATE LYASE, PUTATIVE
  fold change: 0.93
Vs vehicle control, protein TB427.06.4480 VALYL-TRNA SYNTHETASE, PUTATIVE
  fold change: 0.99
Vs vehicle control, protein TB427.06.4770 HY[…], CONSERVED
  fold change: 0.91
Vs vehicle control, protein TB427.07.2560 HY[…], CONSERVED
  fold change: 0.99
Vs vehicle control, protein TB427.07.3370 HY[…], CONSERVED
  fold change: 0.92
Vs vehicle control, protein TB427.07.4570 INOSINE-GUANINE […]
  fold change: 0.98
Vs vehicle control, protein TB427.08.2460 HY[…], CONSERVED
  fold change: 0.83
Vs vehicle control, protein TB427.08.3530 GLYCEROL-3-PHOSPHATE DEH[…]+], GLYCOSOMAL
  fold change: 0.95
Vs vehicle control, protein TB427.10.12890 BI[…]-TRNA SYNTHETASE, PUTATIVE
  fold change: 0.84
Vs vehicle control, protein TB427.10.13660 HY[…], CONSERVED
  fold change: 1.1
Vs vehicle control, protein TB427.10.14890 C-TERMINAL MOTOR KINESIN, PUTATIVE
  fold change: 0.95
Vs vehicle control, protein TB427.10.1510 NOT1
  fold change: 0.92
Vs vehicle control, protein TB427.10.7740 PROTEIN TRANSPORT PROTEIN SEC23
  fold change: 0.96
Vs vehicle control, protein TB427.10.8190 T-COMPLEX PROTEIN 1, THETA SUBUNIT, PUTATIVE
  fold change: 0.97
Vs vehicle control, protein TB427.10.8850 HY[…], CONSERVED
  fold change: 0.93
Vs vehicle control, protein TB927.10.12330 HY[…], CONSERVED
  fold change: 0.95
Vs vehicle control, protein TB927.10.2100 […] 1-ALPHA
  fold change: 0.96
Vs vehicle control, protein TB927.10.8160 HY[…], CONSERVED
  fold change: 0.95
Vs vehicle control, protein TB927.2.2770 HY[…] TB927 2 2770
  fold change: 0.91
Vs vehicle control, protein TB927.2.4930 ESTERASE, PUTATIVE
  fold change: 0.93
Vs vehicle control, protein TB927.3.1370 RIBOSOMAL PROTEIN S25, PUTATIVE
  fold change: 0.89
Vs vehicle control, protein TB927.3.3270 ATP-DEPENDENT PHOSPHOFRUCTOKINASE
  fold change: 0.84
Vs vehicle control, protein TB927.5.4440 DYNEIN LIGHT CHAIN, PUTATIVE
  fold change: 0.96
Vs vehicle control, protein TB927.5.960 HY[…], CONSERVED
  fold change: 0.95
Vs vehicle control, protein TB927.7.2750 PROTEIN KINASE, PUTATIVE
  fold change: 0.89
Vs vehicle control, protein TB927.8.4610 SMALL GTP-BINDING PROTEIN RAB1
  fold change: 0.93
